# According to PubChem BioAssay AID588463 (National Center for Advancing Translational Sciences (NCATS), 2011):
# Out of some 1,200 compounds screened, about 15 (1%) were called active. About 7% were inconclusive and are not listed. Calls come from the whole dose curve; as a rule, active = well fitted activation curve with a large enough effect; inconclusive = small, poorly fitted or top-dose-only effect; inactive = flat fitted curve, though single readings scatter. The list shows a part of the results.
# Target: Beta-2 adrenergic receptor (Homo sapiens) (UniProt P07550)
# Test: qHTS assay of beta-arrestin-biased ligands of beta2-adrenergic receptor: Hit Validation;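 for activation: plate controls were DMSO for no effect and maximal isoproterenol or metaproterenol response for full effect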
# Conditions: cell-based beta-arrestin recruitment to beta2AR; Potency: activation; series mostly up to 46.1 µM; activation: at the top concentration
# Outline: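 Luminescent tTA-driven luciferase reporter in Tango cells, read after 18 h at 37 °C with compound and 15 min with substrate mix (0.15 mM ATP, 0.44 mM D-luciferin, final). Concentration-response fits categorized by curve class.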
# Potency is the fitted concentration of half-maximal effect.
Compound,activation,Potency
CC(C)(C)NC(=S)NNC(=O)c1cccc(Br)c1,inactive: -2.45%,–
c1coc(CNc2nc3nonc3nc2NCc2ccco2)c1,inactive: -4.43%,–
Cc1nonc1NC(=O)CSc1nc2ccccc2o1,inactive: -2.99%,–
O=C(CSc1n[nH]c(=O)n1-c1cccnc1)N1CCOCC1,inactive: -2.41%,–
CNc1sc(C(=O)c2cccs2)c(N)c1-c1nc2ccccc2s1,inactive: -2.76%,–
S=c1[nH]c(-c2ccccc2)cn1/N=C/c1cccs1,inactive: -3.12%,–
c1ccc2[nH]c(NN=C3CCCCCC3)nc2c1,inactive: -0.141%,–
CCOc1ccc(C(=O)Nc2ccccc2OC(F)F)cc1,inactive: -4.99%,–
CCCCCC1CCC(c2n[nH]c(=S)n2C)CC1 (centres undefined),inactive: -5.76%,–
CCOC(=O)c1cccc(NC(=O)c2cncc(Br)c2)c1,inactive: -2%,–
FC(F)(F)c1cnc(N2CCSCC2)c(Cl)c1,inactive: -6.12%,–
Cc1cc(NC(=O)CSc2nnc(-c3ccoc3C)o2)no1,inactive: -0.559%,–
CC1CC(C)CN(C(=O)C2CCN(C(=O)Nc3ccccc3)CC2)C1 (centres undefined),inactive: -3.35%,–
C/C(=N\NC(=S)NCCc1ccccc1)c1ccc(Cl)cc1Cl,inactive: -2.3%,–
CCOc1ccc(CC(=O)Nc2ccc(S(=O)(=O)Nc3cc(C)on3)cc2)cc1OCC,inactive: -2.63%,–
COC(=O)COc1cccc2c(=O)n(CC(=O)Nc3ccc4c(c3)OCCO4)ccc12,inactive: -2.75%,–
O=C(O)c1ccc(C2Nc3ccccc3C(=O)N2Cc2ccccc2)cc1 (centres undefined),inactive: -0.733%,–
COCCOC(=O)c1sc(=S)n(CCOC)c1N,inactive: -0.28%,–
Cc1ccc(C2C3=C(CC(C)(C)CC3=O)NC3=C2C(=O)c2ccccc23)cc1 (centres undefined),inactive: 0.4%,–
O=C(N/N=C/c1ccc(Br)s1)c1cccnc1,inactive: -0.956%,–
Oc1c(C(c2ccccn2)N2CCCCC2)cc(Cl)c2cccnc12 (centres undefined),inactive: 5.16%,–
Cc1ccc2c(c1)C(=O)N1[C@H]3c4ccccc4OC[C@@H]3[C@H](c3ccccc3)[C@]1(C)C(=O)N2,inactive: 1.92%,–
CN(c1ccccc1)S(=O)(=O)c1ccc(C(=O)Nc2nccs2)cc1,inactive: -3.61%,–

Compound,activation,Potency
CC(C)c1nnc(NC(=O)c2cnccn2)s1,inactive: 0.236%,–
CCc1nnc(NC(=O)CSc2nnc(-c3ccccc3NC(=O)c3ccccc3)o2)s1,inactive: -3.34%,–
Cc1ccccc1NC(=O)NNC(=O)c1ccc2ccccc2c1O,inactive: -2.57%,–
Cc1ccccc1-c1nc2c3ccccc3nc(=S)n2[nH]1,inactive: -2.3%,–
Cc1cccc(-c2ocnc2C(=O)Nc2ccccc2NC(=O)c2ccccn2)c1,inactive: -0.383%,–
COC(=O)C1=C(C)N(Cc2ccc(C)cc2)C(=O)/C1=C\c1ccc(O)c(OC)c1,inactive: -0.487%,–
COc1ccc(NC(=O)CN(C)C(=O)CCCNC(=O)c2ccc(Cl)cc2)cc1,inactive: -0.626%,–
CCCC(=O)NC(c1ccc(OC)cc1)c1ccc2cccnc2c1O (centres undefined),–,active: 4.11 µM
CC(=O)Nc1ccc(NC(=O)Cn2nc(C(=O)Nc3ccc(C)cc3)ccc2=O)cc1,inactive: -1.69%,–
O=C(Oc1c(-c2ccco2)oc2ccccc2c1=O)c1cccnc1,inactive: 4.95%,–
CC(C)OC(=O)c1cn(-c2ccccc2)nc1-c1ccco1,inactive: -0.0451%,–
C=CCNC(=S)N/N=C/c1ccc(C)cc1C,inactive: -3.51%,–
O=[N+]([O-])c1cc(Cl)c(O)c2ncccc12,inactive: -3.14%,–
N#C/C(=C\c1cccc(O)c1)C(=O)Nc1ccc2c(c1)OCCO2,inactive: -1.72%,–
O=C(NCCN1CCOCC1)c1ccccc1Cl,inactive: 0.534%,–
Cc1cc(-c2ccccc2)nc(N/N=C/c2ccccc2F)n1,inactive: -1.55%,–
N#CC1=C(N)OC2=C(CC/C2=C\c2ccccc2)C1c1ccccc1 (centres undefined),inactive: -3.08%,–
C/C(=N\NC(=S)NCc1ccccc1)c1ccc(C)o1,inactive: -0.562%,–
O=C(C[n+]1cn(C(F)F)c2ccccc21)c1ccc(OC(F)F)cc1,inactive: -5.07%,–
CC(=O)Nc1ccc(NC(=O)CSc2nnc(-c3cccs3)n2N)cc1,inactive: -1.04%,–
CC(=O)c1c(N2CCOCC2)nc(=O)n(-c2ccccc2)c1C,inactive: -3.04%,–
C/C(=N\NC(=S)NC(C)C)c1ccco1,inactive: 0.73%,–
NC(=O)c1sc2nc(-c3ccco3)ccc2c1N,inactive: -0.0167%,–

# Reprinted at random: 4 records from the list.
Compound,activation,Potency
C/C(=N\NC(=S)NC(C)C)c1ccco1,inactive: 0.73%,–
C=CCNC(=S)N/N=C/c1ccc(C)cc1C,inactive: -3.51%,–
Cc1cccc(-c2ocnc2C(=O)Nc2ccccc2NC(=O)c2ccccn2)c1,inactive: -0.383%,–
Cc1ccccc1NC(=O)NNC(=O)c1ccc2ccccc2c1O,inactive: -2.57%,–

# The list goes on.

Compound,activation,Potency
COc1cc(/C=C2\CC(C(C)(C)C)C/C(=C\c3cc(OC)c(OC)c(OC)c3)C2=O)cc(OC)c1OC (centres undefined),inactive: -2.89%,–
COc1cccc(NC(=S)NN=C2CCCCCC2)c1,inactive: -0.788%,–
C=C(C)c1cccc(C(C)(C)NC(=O)NC(c2ccccc2)c2ccc(OC)cc2)c1 (centres undefined),inactive: 8.73%,–
COC(CN(C(=O)CCl)C(C(=O)NC1CCCC(C)C1C)c1ccc(C)cc1)OC (centres undefined),inactive: -4.4%,–
CC(C)CNC(=O)CN(C)S(=O)(=O)c1ccc(F)cc1,inactive: -3.8%,–
Cc1nc(NC(=S)Nc2ccccc2)sc1C,inactive: -1.95%,–
COc1cc(C(c2nnnn2C(C)(C)C)N2CCN(C)CC2)cc(OC)c1OC (centres undefined),inactive: -0.645%,–
Clc1ccc(OCc2nc(-c3ccccn3)n[nH]2)cc1,inactive: -1.51%,–
C=C(C)Cn1c(SCC(=O)N/N=C/c2cccc(O)c2)nc2ccccc2c1=O,inactive: -1.27%,–
O=c1c(C(c2ccccc2)c2c(O)nc3n(c2=O)CCS3)c(O)nc2n1CCS2,inactive: -2.35%,–
CCCCCOc1ccc(NC(=O)CSc2cccc3cccnc23)cc1,inactive: 0.173%,–
Oc1ccc2c(ccc3[nH]cnc32)c1,inactive: -2.43%,–
O=[N+]([O-])c1ccc(Cl)c(C2Nc3cccc4cccc(c34)N2)c1,inactive: -2.34%,–
CCc1nnc(NC(=S)Nc2ccccc2)s1,inactive: -2.15%,–
COc1cc(/C=N/NC(=S)NC2CC3C=CC2C3)cc(OC)c1OC (centres undefined),inactive: -3.31%,–
S=C(Nc1ccccc1Cl)N(Cc1ccccc1)Cc1ccccn1,inactive: -11%,–
Oc1c(CN2CCN(c3ccccc3)CC2)cc(Br)c2cccnc12,inactive: -0.0884%,–
CCN(CC)c1cc(C(F)(F)F)nc(-c2ccccn2)n1,inactive: -3.79%,–
CCOC(=O)N1CCN(Cc2c(F)cccc2F)CC1,inactive: -2.4%,–
CCOC(=O)n1c(=O)oc2cc(S(=O)(=O)N3CCCCC3)ccc21,inactive: -4.09%,–
Cn1c(=S)c2[nH]c(SCCN3CCCC3)nc2n(C)c1=O,inactive: -2.7%,–
O=C(Nc1ccc(Cl)cc1)/C(=C/c1cccc(O)c1)c1nc2ccccc2s1,inactive: -4.71%,–
CC1(C)Cc2c(sc3[nH]c(=S)n(Cc4ccccc4)c(=O)c23)CO1,inactive: -4.31%,–

Compound,activation,Potency
O=c1[nH]c(CSc2ccccn2)nc2c1cnn2-c1ccccc1,inactive: -0.631%,–
CC1=NN(c2ccccc2)C(=O)/C1=C/C=C/c1ccccc1,inactive: -3.2%,–
CCN(CC)S(=O)(=O)c1ccc(C)c(NC(=S)Nc2cccc(S(=O)(=O)N3CCCCCC3)c2)c1,inactive: 0.658%,–
COc1ccc(CN=C2NN=C(c3ccccc3)CS2)cc1,inactive: -5.3%,–
O=C(/C=C/c1ccc(N2CCCCC2)c([N+](=O)[O-])c1)c1ccc(S(=O)(=O)N2CCCC2)cc1,inactive: -3.08%,–
CN(Cc1ccccc1)CC(O)COc1ccc(CNCCCOc2cccnc2)cc1 (centres undefined),inactive: -2.7%,–
COc1ccc(O)c(/C=N/Nc2nc(Nc3ccccc3)nc(-n3nc(C)cc3C)n2)c1,inactive: -2.97%,–
Cc1cc(C(=O)COC(=O)Cc2n[nH]c(=O)c3ccccc23)c(C)n1-c1ccc2c(c1)OCCO2,inactive: 3.48%,–
CCCN(CC(=O)Nc1ccc(Cl)cc1Cl)C(=O)/C=C/c1ccco1,inactive: -2.23%,–
Cc1cccnc1NC(=S)Nc1ccc(Br)cc1Cl,inactive: -1.9%,–
COc1ccc(N2COC3c4cccc5cccc(c45)C32)cc1 (centres undefined),inactive: -1.17%,–
O=C1c2ccccc2-c2onc3ccc(Oc4ccccc4)c1c23,inactive: -3.37%,–
CC(=O)c1sc(Nc2nc3ccc(F)cc3s2)nc1C,inactive: -2.59%,–
CSc1cccc(CN2CCC(Oc3cccc(C(=O)N4CCCC4)c3)CC2)c1,inactive: -2.33%,–
CN(C)NC(=S)NC(=O)C12CC3CC(CC(C3)C1)C2,inactive: -2%,–
CCCC(=O)NC(c1ccccc1OC)c1ccc2cccnc2c1O (centres undefined),inactive: -3.63%,–
COC(=O)N1C(=O)[C@@](c2ccc(OC)cc2)(C(C)C)N1C(=O)OC,inactive: -0.416%,–
CCCC1CCC(=NNC(=S)NCCc2ccccc2)CC1 (centres undefined),inactive: -2.41%,–
COc1ccc(/C=N/NC(=S)Nc2ccccc2)cc1,inactive: -1.6%,–
C/C(CCc1ccccc1)=N\NC(=S)NCCc1ccccc1,inactive: -4.15%,–
CCNc1nc(-c2cc3ccccc3o2)cs1,inactive: -3.12%,–
NS(=O)(=O)c1ccc(N2CCOCC2)c(C(=O)NCc2cccs2)c1,inactive: -0.191%,–
O=C(Cn1c(=O)c2sccc2n(Cc2cccc([N+](=O)[O-])c2)c1=O)NCCc1ccccc1,inactive: -1.94%,–

Compound,activation,Potency
CO/C=C\C=C/c1nnn(-c2ccc(Cl)cc2)n1,inactive: -0.995%,–
O=C(Nc1cccc2ccccc12)N1N=CCC1c1ccccc1 (centres undefined),inactive: -2.81%,–
Cc1cccc(C)c1-n1c(C)cc(/C=N/NC(N)=S)c1C,inactive: -4.05%,–
Cc1cc(C)cc(OCCn2nnc3ccccc32)c1,inactive: -0.728%,–
O=C(/C=C\c1ccco1)Oc1cccc2cccnc12,inactive: -1.94%,–
CCCc1cc(=O)n2[nH]c(-c3ccc(Cl)cc3)cc2n1,inactive: -1.03%,–
C=C(C)C(=O)OC1(C(F)(F)F)Oc2cc(C)ccc2NC1=O (centres undefined),inactive: 0.118%,–
O=C(O)c1cn(Cc2ccccc2)c2ccccc2c1=O,inactive: -4.98%,–
O=[N+]([O-])c1cc([N+](=O)[O-])c2cc3ccccc3nc2c1,inactive: -2.08%,–
C/C(Cl)=C\Cn1c(O)c(N=NC(N)=S)c2ccccc21,inactive: -3.24%,–
C(=N\NC1=Nc2cccc3cccc1c23)/c1ccccn1,inactive: -0.451%,–
CC(=O)OC[C@H]1O[C@@H](Sc2cccc3cccnc23)[C@H](OC(C)=O)[C@@H](OC(C)=O)[C@H]1OC(C)=O,inactive: -2.15%,–
CCC(=O)Nc1ccc2c(c1)C(=O)c1ccccc1C2=O,inactive: -1.51%,–
COc1cccc(OCC(=O)Nc2c3c(nn2-c2ccc(F)cc2)CS(=O)(=O)C3)c1,inactive: -3.13%,–
C[C@H](C(=O)CC(=O)OC(C)(C)C)[C@H](O)c1ccccc1,inactive: -4.43%,–
Cc1cccc(NC(=S)NCc2ccco2)n1,inactive: -1.1%,–
CNC(=S)N/N=C(\C)c1cccc(C(F)(F)F)c1,inactive: -2.59%,–
C=CCn1c(CCn2c3ccccc3c3ccccc32)n[nH]c1=S,inactive: -1.05%,–
N/C(=C\C(=O)c1cc(Cl)ccc1O)C(Cl)(Cl)Cl,inactive: -2.69%,–
COc1ccc2c(c1)c1ncn(CCN3CCCCC3)c(=O)c1n2C,inactive: -0.19%,–
Cc1cc(C)n(-c2nc(NCC3CCCO3)c3c4c(sc3n2)COC(C)(C)C4)n1 (centres undefined),inactive: -2.68%,–
NC(=S)N/N=C/c1ccc(-c2ccc(SC(F)F)cc2)o1,inactive: -4.96%,–
